Measurements: PMC7819943, “Rice protein-binding microarrays: a tool to detect cis-acting elements near promoter regions in rice”
Some of the results follow.

By UniProt entry, the sequences of proteins in these tests, tags left out.
UniProt Q0JBA9, entry or part of it: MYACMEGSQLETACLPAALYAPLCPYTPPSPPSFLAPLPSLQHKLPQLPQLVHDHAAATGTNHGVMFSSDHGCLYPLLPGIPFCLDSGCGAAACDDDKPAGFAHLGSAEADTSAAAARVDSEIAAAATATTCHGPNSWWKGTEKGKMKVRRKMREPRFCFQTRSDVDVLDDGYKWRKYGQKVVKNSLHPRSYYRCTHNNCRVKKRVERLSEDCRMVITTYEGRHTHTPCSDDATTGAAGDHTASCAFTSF

target: OsWRKY34 (Oryza sativa, UniProt Q0JBA9 1-250); experiment: protein-binding microarray (RPBM); PBS, 2% BSA, 51.3 ng/ul salmon testes DNA, 50 uM zinc acetate, 200 nM TF, 25 C, 1 h; high values mean tight binding; conditions: protein: recombinant; tags: N-terminal polyhistidine and DsRed monomer fusion (pET32a); label: CyDye5-dUTP incorporated in the synthesized complementary strand; 3' TTTTT single-stranded linker to array surface; dsDNA, one strand shown
In short: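 Ni–NTA purification followed expression in E. coli BL21-CodonPlus of transcription factors fused N-terminally to a polyhistidine tag and DsRed. At 200 nM in PBS with 2% BSA, salmon testes DNA and 50 µM zinc acetate, the protein was incubated for 1 h at 25 °C with a custom Agilent array that had been primer-extended with Cy5-dUTP and blocked with 2% BSA. After washing, the array was read on an Axon 4000B scanner. The binding signal is per-feature fluorescence intensity in arbitrary units.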

| Sequence | binding signal |
| --- | --- |
| CCGTCGCCGTCCACACCAGTCGCTGAGCCAGCTGCGACCGCGGAGTCACCTAGTGCAG | 8660 fluorescence intensity (a.u.) |
| AACGGTCGCCCCGCTCCGCCGTTTTTCCACCGGTTTTTCACGGAGTCACCTAGTGCAG | 11000 fluorescence intensity (a.u.) |
| GCTGATTTAAGGTTACGTGGGTGTGCTTGAGAAGAAGGGGCGGAGTCACCTAGTGCAG | 8260 fluorescence intensity (a.u.) |
| TGTCACAGTGTTTTGTTTGTGTTTTTGACCTTGCTTTCCTCGGAGTCACCTAGTGCAG | 16800 fluorescence intensity (a.u.) |
| AAGCTAGCCCGACAACTTTACTATAACGCTTTTCATGTTACGGAGTCACCTAGTGCAG | 11400 fluorescence intensity (a.u.) |
| TAAAAAAGTCAACGGCGTTAAACATTTTGGGATGGAGGGACGGAGTCACCTAGTGCAG | 11200 fluorescence intensity (a.u.) |
| GCTCCTCAGGCACAAGCACGCCACACACTCTCTCATCTCACGGAGTCACCTAGTGCAG | 9470 fluorescence intensity (a.u.) |
| AGGCGAATAATTCCGCTGTTGCTTCGCTGCCTTTTGCCTTCGGAGTCACCTAGTGCAG | 8630 fluorescence intensity (a.u.) |
| AATCCAATTAAGCTGCGTACATCGCACATTTCGTGCTGCCCGGAGTCACCTAGTGCAG | 8200 fluorescence intensity (a.u.) |
| CCCTTCCAAGATCCGATTTCCCCACCACCGCTCGGTCGCCCGGAGTCACCTAGTGCAG | 9280 fluorescence intensity (a.u.) |
| AATCAAACGACCATTCCTATATTTTTTCTGTGTTTTGTAACGGAGTCACCTAGTGCAG | 9860 fluorescence intensity (a.u.) |
| TTACAACAAAACTAAGTAGGGGTGGGTATTTGCAACAAAACGGAGTCACCTAGTGCAG | 17600 fluorescence intensity (a.u.) |
| CCCCTTTACCCCGCCCGTTTCCTCTTGTTTCCGCCATGCCCGGAGTCACCTAGTGCAG | 8730 fluorescence intensity (a.u.) |
| GGGCAGCAGTTGCGGGACGTGCGGGGCGAGTGCGGGGAGTCGGAGTCACCTAGTGCAG | 8950 fluorescence intensity (a.u.) |
| AATCGAAATTTACTGTTCGGCTTTTGATACACCTTGACTCCGGAGTCACCTAGTGCAG | 8560 fluorescence intensity (a.u.) |
| TCACAGTGGATTGCCACACCATTCGAAGTTCTTTATATGCCGGAGTCACCTAGTGCAG | 9140 fluorescence intensity (a.u.) |
| ACTCATATTGCAAATGTCATGTTTATTGTCTTAATATTTTCGGAGTCACCTAGTGCAG | 8430 fluorescence intensity (a.u.) |
| TAACTTCTCCTCTCTCGTTTCATATGTACGCATTTCCTCACGGAGTCACCTAGTGCAG | 8930 fluorescence intensity (a.u.) |
| CCTGTTCGCAGCGCATGTGAAGCCATTGCATTGTACTAACCGGAGTCACCTAGTGCAG | 8150 fluorescence intensity (a.u.) |
| ACGACGTGAGGGAGGTGGTTGGGGCTCGTGATGGCGGTGTCGGAGTCACCTAGTGCAG | 8140 fluorescence intensity (a.u.) |
| CTGCTTCCATCCAACAGCATGTCCACATCCATATCCAATCCGGAGTCACCTAGTGCAG | 9690 fluorescence intensity (a.u.) |
| TGCTTTTCGTACCAATTACTACTACTTCAGTTTCTAACCACGGAGTCACCTAGTGCAG | 11000 fluorescence intensity (a.u.) |
| CTCGTCCTTCCACACCACGTCCAGGTCATTTCCGCCTCCTCGGAGTCACCTAGTGCAG | 10000 fluorescence intensity (a.u.) |
| CCATCTTGTTTCGTCGTTTGCTGCGGCCTTCGGTTGAGGACGGAGTCACCTAGTGCAG | 14700 fluorescence intensity (a.u.) |
| CCACCATCACCATCTAAACGTTACAGCCACAATGTTCTAGCGGAGTCACCTAGTGCAG | 9020 fluorescence intensity (a.u.) |
| AAACTTTTTCTCACCTTTGAGCTGTCCCTATATACACAACCGGAGTCACCTAGTGCAG | 8490 fluorescence intensity (a.u.) |
| AAAGTTAACATACTTTTGTCTTAATTTGCATGGTTTCTTACGGAGTCACCTAGTGCAG | 9520 fluorescence intensity (a.u.) |

Given as comma-separated lines: entries from further up.
Sequence,binding signal
AAGCTAGCCCGACAACTTTACTATAACGCTTTTCATGTTACGGAGTCACCTAGTGCAG,11400 fluorescence intensity (a.u.)
TAAAAAAGTCAACGGCGTTAAACATTTTGGGATGGAGGGACGGAGTCACCTAGTGCAG,11200 fluorescence intensity (a.u.)
GCTCCTCAGGCACAAGCACGCCACACACTCTCTCATCTCACGGAGTCACCTAGTGCAG,9470 fluorescence intensity (a.u.)
AGGCGAATAATTCCGCTGTTGCTTCGCTGCCTTTTGCCTTCGGAGTCACCTAGTGCAG,8630 fluorescence intensity (a.u.)
AATCCAATTAAGCTGCGTACATCGCACATTTCGTGCTGCCCGGAGTCACCTAGTGCAG,8200 fluorescence intensity (a.u.)
CCCTTCCAAGATCCGATTTCCCCACCACCGCTCGGTCGCCCGGAGTCACCTAGTGCAG,9280 fluorescence intensity (a.u.)
AATCAAACGACCATTCCTATATTTTTTCTGTGTTTTGTAACGGAGTCACCTAGTGCAG,9860 fluorescence intensity (a.u.)
TTACAACAAAACTAAGTAGGGGTGGGTATTTGCAACAAAACGGAGTCACCTAGTGCAG,17600 fluorescence intensity (a.u.)
CCCCTTTACCCCGCCCGTTTCCTCTTGTTTCCGCCATGCCCGGAGTCACCTAGTGCAG,8730 fluorescence intensity (a.u.)
GGGCAGCAGTTGCGGGACGTGCGGGGCGAGTGCGGGGAGTCGGAGTCACCTAGTGCAG,8950 fluorescence intensity (a.u.)
AATCGAAATTTACTGTTCGGCTTTTGATACACCTTGACTCCGGAGTCACCTAGTGCAG,8560 fluorescence intensity (a.u.)
TCACAGTGGATTGCCACACCATTCGAAGTTCTTTATATGCCGGAGTCACCTAGTGCAG,9140 fluorescence intensity (a.u.)

Next records follow.

| Sequence | binding signal |
| --- | --- |
| CATGGCGAACACACCCTAATTCTGATCATCTTTAATTTCTCGGAGTCACCTAGTGCAG | 9060 fluorescence intensity (a.u.) |
| AACACAACAAACTGTCGCCACTGGCTCTGTTTCACTTGCTCGGAGTCACCTAGTGCAG | 8820 fluorescence intensity (a.u.) |
| TCTCCCGTCGGATACTGTCGGTAGTAGCTTTTTGCCGTGTCGGAGTCACCTAGTGCAG | 8260 fluorescence intensity (a.u.) |
| GTTCCACACGCCCACCCCATCCACAATAATATATCCAATCCGGAGTCACCTAGTGCAG | 8390 fluorescence intensity (a.u.) |
| GGACTGCACTATGAATTAATTGGATCACACCTGCTGCTAGCGGAGTCACCTAGTGCAG | 8550 fluorescence intensity (a.u.) |
| GTTGCTTAGATTCGGTTTCTGATATAATCTGACTTGTACACGGAGTCACCTAGTGCAG | 8190 fluorescence intensity (a.u.) |
| CGCGCACCCGTTAACGTATTGATCGACCTTGCCGTTCGTCCGGAGTCACCTAGTGCAG | 11300 fluorescence intensity (a.u.) |
| CTTCTTTAAACCGCGCCGCGCCGCGCCTACCCAAATATATCGGAGTCACCTAGTGCAG | 10500 fluorescence intensity (a.u.) |
| GCTGTTGACTTTCGACCTACGTTTGACCATTCGTTTTATTCGGAGTCACCTAGTGCAG | 20600 fluorescence intensity (a.u.) |
| ATCCTGGTAGTGATCAATAGCTCCTAACCTTTTTTTTTTACGGAGTCACCTAGTGCAG | 8100 fluorescence intensity (a.u.) |
| CGCCGCCACCACTAGCTCGCTTCATTTCCACCGCACGCACCGGAGTCACCTAGTGCAG | 8520 fluorescence intensity (a.u.) |
| GCCAACGCCGTGCCGTGTCCATCTACCGCCGCCCACAACTCGGAGTCACCTAGTGCAG | 9230 fluorescence intensity (a.u.) |
| CATGGGGAGAAGGGAATGTGGGGAGGGAGACAGGAGCTGACGGAGTCACCTAGTGCAG | 9030 fluorescence intensity (a.u.) |
| GAAGATCGACGGTGCACATATATACTTGCGTTATTTCACTCGGAGTCACCTAGTGCAG | 9440 fluorescence intensity (a.u.) |
| ACGTGTCCTTCTCTCTTTTTTTCTTTTTCGTTTTCTTCTCCGGAGTCACCTAGTGCAG | 8280 fluorescence intensity (a.u.) |
| TGCTTATCCGGACATACTACGCGAGTAGGGGATGGGGCCACGGAGTCACCTAGTGCAG | 10800 fluorescence intensity (a.u.) |
| TTTTTTTGGGGATTTATCTTTTTTTGGGGATTTTTTTTTTCGGAGTCACCTAGTGCAG | 12100 fluorescence intensity (a.u.) |
| TGTCGTCCCGTACTACGTCATCTCCAGTCATCTTCTCCCACGGAGTCACCTAGTGCAG | 8490 fluorescence intensity (a.u.) |
| ATGATTCTTGATGCAAACTCAGTCTAGGTCTTTCTTTGTCCGGAGTCACCTAGTGCAG | 8910 fluorescence intensity (a.u.) |
| CCTTTGTTGTACTAGCCACCAGAAACCAGTGATCAGAATACGGAGTCACCTAGTGCAG | 8110 fluorescence intensity (a.u.) |
| TCCTCCTTTTTCTTGTACTCGCAACCTCTCTCACGTTGCGCGGAGTCACCTAGTGCAG | 8090 fluorescence intensity (a.u.) |
| GTGCATTTCGAAATCTGACCGTTCAGCGACCAACTGCATCCGGAGTCACCTAGTGCAG | 8700 fluorescence intensity (a.u.) |
| GGTGGGGATTACTCTTGGAGACAAATTGCTCTCCGAATTTCGGAGTCACCTAGTGCAG | 13800 fluorescence intensity (a.u.) |
| GGGTGTATCTTTGATGGGCTTTAAATGGGCCCTCGGCCGACGGAGTCACCTAGTGCAG | 8430 fluorescence intensity (a.u.) |
| CTTAGCTCGTATGTAGACTTTTGATGGCTTAATCCTATTTCGGAGTCACCTAGTGCAG | 8550 fluorescence intensity (a.u.) |
| TTCTCAACTCCAATCCTCATTCCATTTCCATATTCCGTCTCGGAGTCACCTAGTGCAG | 10200 fluorescence intensity (a.u.) |
| ACAAAACATCACAAGTTACATTCCCACAATTTTGGGCATTCGGAGTCACCTAGTGCAG | 9040 fluorescence intensity (a.u.) |
